Hit rate of the full screen: of about 52,000 sequences, about 210 (0.4%) were called active.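 The calls were made as follows: active = gene whose silencing raises cell survival under the drug, median off-target-corrected z-score across its silencing RNAs 2 or more; inactive = the rest.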 Some of the results follow.
experiment: Resistance to Poly (ADP-Ribose) Polymerase inhibitor: Gene Identification via Genome-wide siRNA Screen; conditions: mouse BRCA2 R2336H ES cells, olaparib, CellTiter-Glo viability; active compounds read high
Summary of the method: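 Mouse BRCA2 R2336H ES cells were reverse-transfected with siRNA (20 nM final), treated at 48 h with 500 nM olaparib, and read by CellTiter-Glo after 72 h. Scores: MAD-based z per siRNA, median per gene, seed off-target correction.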

Row | Sequence | z-score
1 | CGGAACUCUGCCACAAGUUTT against Zfp36 | inactive: -0.892
2 | CCAACAAUGAUUAAUCAGCTT against Meis1 | inactive: -0.122
3 | GUUCUAGGCCUCCUGAAGCTT against 1110033C18Rik | inactive: -0.994
4 | GGCUGGUACUUGAGUUCAATT against Soat1 | inactive: -1.37
5 | GGAAAAGUGGGUUGAAGUUTT against Ipp | inactive: 0.104
6 | GGAGCAAUUUGAAGACUAUTT against Rab11fip4 | inactive: -0.295
7 | GGAUUUCGGCUUUUUGAACTT against Bcas1 | inactive: -0.147
8 | CCAAAAGUCACGUUUCUCATT against Per2 | inactive: 1.2
9 | GGAUCAUACCAAAGUACACTT against Cyp2a12 | inactive: -1.68
10 | GGAGAAAGUCCCAUUAGAGTT against Loh11cr2a | inactive: 2.42
11 | GGAACCUUCAGAGCGACUUTT against Trib3 | inactive: -0.287
12 | GGCAUACUACACAAAGCAGTT against 4933424F08Rik | inactive: -0.104
13 | CCUCACUUCAGCAAAACCATT against 1200003E16Rik | inactive: 0.42
14 | GGUAUUUUGUUUUUUGGGUTT against Olfm3 | inactive: -0.917
15 | CCUGAACGACAGAUUGGCATT against Krt20 | inactive: 0.19
16 | GGAUGAUGACAUUCACUUATT against Ntan1 | inactive: -0.897
17 | GGAGGCUUUUCAGACCAAGTT against 3830406C13Rik | inactive: 1.21
18 | GGGACCCUACAAAAUCAUUTT against Ganab | inactive: 0.37
19 | GGUCCUAUUUAUUAAUACCTT against Emid1 | inactive: -0.32
20 | GGACAGCUCUCUCCAUACATT against Tlr9 | inactive: -1.36
21 | GCUGGACCCUUAAGUGUAATT against Bmyc | inactive: -0.727
22 | UCUCCUUCCUAACUUCAACTT against E030010A14 | inactive: 0.4
23 | GCAGGGAGGCAUCUUCUUUTT against Olfr3 | inactive: 0.8
24 | GCACCAAACCAAUAUUAGUTT against Epb4.1l3 | inactive: 0.504
25 | GGAGAAAAAAGUGAAACUCTT against Cntn4 | inactive: -0.782
26 | GGAUCGAUAAACAAAUAAGTT against Tmem16d | inactive: -1.11

Quoted at random: 7 records from the list
Row | Sequence | z-score
14 | GGUAUUUUGUUUUUUGGGUTT against Olfm3 | inactive: -0.917
2 | CCAACAAUGAUUAAUCAGCTT against Meis1 | inactive: -0.122
11 | GGAACCUUCAGAGCGACUUTT against Trib3 | inactive: -0.287
21 | GCUGGACCCUUAAGUGUAATT against Bmyc | inactive: -0.727
6 | GGAGCAAUUUGAAGACUAUTT against Rab11fip4 | inactive: -0.295
1 | CGGAACUCUGCCACAAGUUTT against Zfp36 | inactive: -0.892
10 | GGAGAAAGUCCCAUUAGAGTT against Loh11cr2a | inactive: 2.42

More records follow.

Row | Sequence | z-score
27 | GGUCCUUCAUUUGGUUACATT against Dtna | inactive: -1.66
28 | GGCACAGAAAAUCUUCAAATT against Ap2a1 | inactive: 1.67
29 | GGUGAAUGGAACAGGUAAGTT against LOC237891 | inactive: -1.54
30 | GGCUAAUCACUAGAUUAGATT against Ldb2 | inactive: 0.435
31 | GCGAACUAUUCAAAAGUUATT against 4921504E06Rik | inactive: -0.433
32 | GCCGAUGUAUCUACUUUGCTT against Rnase6 | inactive: 1.13
33 | GCAACAUCGUAUGUUAAUGTT against Slc9a4 | inactive: 0.819
34 | GGUUGCUAUUAUUAUUGGATT against Fnbp4 | inactive: -0.969
35 | GGAGACAGAGAUCAUUGAATT against Ruvbl2 | inactive: -1.21
36 | GCCUCCCGGAAAUAUAGGUTT against 2610511M17Rik | inactive: 0.0433
37 | GGAAAUUAUGACAUGCACCTT against Eya3 | inactive: 0.585
38 | GCACCCAAACUUAAAAUAGTT against A230091H23 | inactive: -1.42
39 | CCUCACAAAUAUACAGUUCTT against Pira2 | inactive: -1.68
40 | CGACAUGUCAAAACUCACGTT against LOC244556 | inactive: 1.6
41 | GGAAAUGUGGAGCUCAACGTT against 1810031K02Rik | inactive: -1.13
42 | GCCACCAUGUGCAACAUACTT against Ifit2 | inactive: -1.07
43 | GGAGAUAAAUGUGUAGACCTT against Matn3 | inactive: 1.68
44 | GCCUGAGGAAUCGUGACAUTT against Olfr51 | inactive: 1.02
45 | GGUCACACCCAUAAACUAATT against B630019K06Rik | inactive: -0.687
46 | GGCAUUGAAUUACUUACAUTT against Slk | inactive: 0.152
47 | GGUAUAAGGAUUCUUUGAATT against 4833435D08Rik | inactive: -0.362
48 | GCGAAUUGGAACAGCUGACTT against Sh3glb1 | inactive: 1.09
49 | CCAGAUUAACUACAAAUCCTT against B430203M17Rik | inactive: 0.188
50 | CCCUGUUGAAGAGACGAGATT against BC028768 | inactive: 0.272
51 | GGAAGACACUUAAAAAUUCTT against 1200013A08Rik | inactive: 0.131
52 | GGAGACAUCAUCUGAAUAUTT against Hnmt | inactive: -0.102

Nos. 13–14, quoted:
Row | Sequence | z-score
13 | CCUCACUUCAGCAAAACCATT against 1200003E16Rik | inactive: 0.42
14 | GGUAUUUUGUUUUUUGGGUTT against Olfm3 | inactive: -0.917

(cont.)

Row | Sequence | z-score
53 | GGGCUAGGUAGUGAUGGUCTT against Snrp70 | inactive: -2.33
54 | GCCCAUGGGUACAUGCAAUTT against 1810065E05Rik | inactive: -0.214
55 | GGAGAACAAGGUGACUUGGTT against Irx1 | inactive: 0.945
56 | GGUGUAUAAUAUGAGAUAGTT against Rdx | inactive: 0.749
57 | GCAACACCUUAUGUUUCAUTT against Cab39 | inactive: 0.491
58 | CCACCAUGCAACCUCCUGATT against Acsl6 | inactive: -2.42
59 | CCUGUACCUGCGUAUUCAATT against Grap | inactive: 1.97
60 | GGUGGUGGCAAAUAAAAUUTT against Smr2 | inactive: -0.171
61 | GGGACCCUGAGAAAAGACATT against Tln1 | inactive: -2.21
62 | GGAUUAUGGGAAUUAACUATT against Mpdz | inactive: 2.13
63 | GGAAGCAUCUCAUUAUUCATT against Lamp2 | inactive: 0.333
64 | GGUAACUUCCCAGGAGGGATT against Bcl9 | inactive: 0.0202
65 | GGAUAUGGAUUCUCCCGAUTT against Krtap8-2 | inactive: 1.79
66 | CGACUGCUUAAUGAUUCCCTT against Pfdn4 | inactive: -1.28
67 | GGUGCAGUCUUAGGGAGGUTT against Rps6kb1 | inactive: -1.53
68 | GGCUAUACUGUCAAUGUAUTT against Nsdhl | inactive: 0.34
69 | GCAAUUGAAGCAAUUGACUTT against 2600013N14Rik | inactive: 0.537
70 | GGAUGUCAGAAAACAGUGCTT against 1110055L24Rik | inactive: 0.505
71 | GGUGGAUUGUCACACGAGUTT against Prkr | inactive: -0.725
72 | GAGCAUUGUCUACCUGGAATT against V1rh3 | inactive: -0.57
73 | GGGAGUUUCUUAUUCACACTT against Lgi1 | inactive: 0.16
74 | GGGAGAGACAGAAAGCUUUTT against Olfr213 | inactive: -0.706
75 | CCCACUGCCAAGUACAAUGTT against Dmwd | inactive: 0.541
76 | GGCAUCUGUUACCCAGAAUTT against C130073D16Rik | inactive: -0.519
77 | GGGUAUUUAUCUGAAGCCCTT against 0610009M14Rik | inactive: -0.302
78 | GGUGCUGACUGACAAAGAATT against Tnfaip1 | inactive: 0.987

Row | Sequence | z-score
79 | GGAUCUCCAGAAAGACUUUTT against 1700012P16Rik | inactive: -2.05
80 | CCAAGAGACCUUUGGACGATT against Tgfbrap1 | inactive: -2.4
81 | CCGUUCACAUGCAUCACUGTT against Olfr1378 | inactive: -1.4
82 | CCUAGAUUGAAAAUUGUCATT against 1700049G17Rik | inactive: -0.329
83 | CCGACAUUUUCGUCACCAGTT against Gabra1 | inactive: -1.71
84 | GGAUGGGAAGACUACCCGATT against Camta2 | inactive: 0.093
85 | GCCUAAACAAGCCGAUGUGTT against Gap43 | inactive: -0.706
86 | GGGACAUGUUUUGAUAAAGTT against Yy1 | inactive: -0.737
87 | GGAAAUGAAGCUAGUUUAATT against Usp38 | inactive: 2.81
88 | CGCGAUUCUGGAUGAGAACTT against Cacnb3 | inactive: 0.038
89 | GGCACGUCUGGACAACAUCTT against Cd22 | inactive: -0.993
90 | GGCAAAUCCCGUUUCCAGATT against Hspb3 | inactive: 0.624
91 | CCGUAAGGAUGAAGAGAUATT against Casp8ap2 | inactive: -2.3
92 | GGAUGUGUCAGAAAAGUUATT against Lars2 | inactive: -0.535
93 | GGAAAUACGACAACAGCCATT against 2700097O09Rik | inactive: -1.72
94 | GAGCUUUUCGCCAGAAGUGTT against Tcstv3 | inactive: -0.18
95 | GGCUUCAUUUCCUAUAAUGTT against 3321401G04Rik | inactive: 0.165
96 | GCCAAAUGCGUUAUCAAUGTT against Gpd2 | inactive: -0.0952
97 | CCUCAUCGAUGCACUACCCTT against Lrfn4 | inactive: 0.324
98 | GGUAAGGGUAAAGAUUCUUTT against Pgk2 | inactive: 0.349
99 | CCGACUUGAGGUUUCAAAGTT against H3f3b | inactive: 0.775
100 | GACAGGCGGCCUUCCGAGATT against 6430559E15Rik | inactive: 0.861
101 | CCUGAAGAAAGAAUCCCUATT against Og2x | inactive: -0.802
102 | GCAGCUGGAUGCUACUAACTT against 4631423F02Rik | inactive: -0.245
103 | GCAAGAAAAGGUGCUAUCUTT against Vdrip | inactive: 0.767
104 | GCGAUUGUGCUUUUGAGCCTT against 5730590C14Rik | inactive: 1.21

From PubChem BioAssay AID1347423 (Functional Genomics Laboratory (NCATS/FGL), 2020)
